Assay [1] has as its target T1, MBP-II^Glc-CFP (E. coli) (UniProt P69786).
T1 sequence: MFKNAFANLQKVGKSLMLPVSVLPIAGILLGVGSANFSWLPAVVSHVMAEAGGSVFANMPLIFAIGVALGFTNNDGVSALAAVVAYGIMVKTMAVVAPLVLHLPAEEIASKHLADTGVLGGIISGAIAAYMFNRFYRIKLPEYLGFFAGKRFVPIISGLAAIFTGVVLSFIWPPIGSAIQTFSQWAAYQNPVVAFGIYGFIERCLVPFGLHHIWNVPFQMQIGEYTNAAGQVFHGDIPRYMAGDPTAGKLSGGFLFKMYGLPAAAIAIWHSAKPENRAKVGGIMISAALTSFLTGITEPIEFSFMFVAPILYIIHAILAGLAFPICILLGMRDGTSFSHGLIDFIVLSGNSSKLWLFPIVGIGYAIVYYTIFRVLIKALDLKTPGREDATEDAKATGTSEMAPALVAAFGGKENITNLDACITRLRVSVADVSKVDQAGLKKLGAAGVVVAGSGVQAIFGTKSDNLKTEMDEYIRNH
Description: FRET or BRET; in vitro FRET competition; crude peak 1 CFP (5.2 mg) and peak 1 YFP (26 mg) fused proteins mixed with 0 to 338.1 mg crude un-labeled peak 1 MBP-II^Glc, solubilized with Triton X100 and purified on amylose.

Assay [2] has as its target T2, MBP-II^Glc-YFP (E. coli) (UniProt P69786).
T2 sequence: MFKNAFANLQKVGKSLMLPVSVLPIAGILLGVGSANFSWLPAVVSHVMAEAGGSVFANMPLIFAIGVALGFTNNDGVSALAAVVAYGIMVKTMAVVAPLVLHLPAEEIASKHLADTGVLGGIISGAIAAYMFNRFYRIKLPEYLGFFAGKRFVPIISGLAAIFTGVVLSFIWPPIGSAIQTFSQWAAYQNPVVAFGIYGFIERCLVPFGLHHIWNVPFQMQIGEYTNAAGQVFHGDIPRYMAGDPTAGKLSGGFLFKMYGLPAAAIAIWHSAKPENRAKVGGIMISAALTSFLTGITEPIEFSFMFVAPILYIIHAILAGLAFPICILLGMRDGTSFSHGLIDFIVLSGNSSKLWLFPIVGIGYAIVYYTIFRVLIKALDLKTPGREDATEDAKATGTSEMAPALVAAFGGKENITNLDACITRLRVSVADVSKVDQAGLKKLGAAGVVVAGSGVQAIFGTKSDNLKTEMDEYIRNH
Description: condition: only peak 2 proteins purified separately before mixing, no detergent; FRET or BRET; in vitro FRET; peak 2 CFP and peak 2 YFP fused proteins purified separately on amylose, then mixed; no detergent; both purified.

The target of assay [3] is T2, MBP-II^Glc-YFP (E. coli). The assay can be described thus: condition: only crude peak 1 proteins mixed and purified without detergent treatment; FRET or BRET; in vitro FRET; crude peak 1 CFP and peak 1 YFP fused proteins mixed, then purified on amylose; no detergent; elution buffer with 10 mM maltose.
For assay [4], the target named is T2, MBP-II^Glc-YFP (E. coli). Description: condition: only peak 1 proteins purified separately, then mixed and Triton X100 treated, not purified again; FRET or BRET; in vitro FRET; peak 1 CFP and peak 1 YFP fused proteins purified separately, mixed, treated with 0.1% Triton X100 and analysed without further purification; both purified.
Assay [5] has as its target T2, MBP-II^Glc-YFP (E. coli). Description: condition: only with 32.3 or 64 mg crude un-labeled MBP-II^Glc as competitor (5.2 mg CFP and 26 mg YFP fused protein); FRET or BRET; in vitro FRET competition; crude peak 1 CFP (5.2 mg) and peak 1 YFP (26 mg) fused proteins mixed with 0 to 338.1 mg crude un-labeled peak 1 MBP-II^Glc, solubilized with Triton X100 and purified on amylose.

The target of assay [6] is T2, MBP-II^Glc-YFP (E. coli). The assay can be described thus: condition: only peak 1 proteins purified separately and mixed without detergent (CFP/YFP ratios 1/1, 1/6, 1/10, 1/20); FRET or BRET; in vitro FRET in a cuvette, excitation 436 nm, emission 440-700 nm; peak 1 CFP and peak 1 YFP fused proteins purified separately on amylose, then mixed; no detergent; 20 mM Tris-HCl, 200 mM NaCl, 1 mM EDTA, 1 mM DTT, 10 mM maltose; both purified.

These are yes or no findings as the source states them, for the method shown. For part of these data: In cells and extracts the contact can be indirect. Some entries that bind do so weakly or less than the wild type. Tags and fused reporters may be left off the sequences shown.

B1: un-labeled MBP-II^Glc (protein, UniProt P69786 1-477)
chain: MFKNAFANLQKVGKSLMLPVSVLPIAGILLGVGSANFSWLPAVVSHVMAEAGGSVFANMPLIFAIGVALGFTNNDGVSALAAVVAYGIMVKTMAVVAPLVLHLPAEEIASKHLADTGVLGGIISGAIAAYMFNRFYRIKLPEYLGFFAGKRFVPIISGLAAIFTGVVLSFIWPPIGSAIQTFSQWAAYQNPVVAFGIYGFIERCLVPFGLHHIWNVPFQMQIGEYTNAAGQVFHGDIPRYMAGDPTAGKLSGGFLFKMYGLPAAAIAIWHSAKPENRAKVGGIMISAALTSFLTGITEPIEFSFMFVAPILYIIHAILAGLAFPICILLGMRDGTSFSHGLIDFIVLSGNSSKLWLFPIVGIGYAIVYYTIFRVLIKALDLKTPGREDATEDAKATGTSEMAPALVAAFGGKENITNLDACITRLRVSVADVSKVDQAGLKKLGAAGVVVAGSGVQAIFGTKSDNLKTEMDEYIRNH
Regarding B1, the binding result in assay [1] is given as “binds”.

B2: MBP-II^Glc-CFP (protein, UniProt P69786 1-477)
chain: MFKNAFANLQKVGKSLMLPVSVLPIAGILLGVGSANFSWLPAVVSHVMAEAGGSVFANMPLIFAIGVALGFTNNDGVSALAAVVAYGIMVKTMAVVAPLVLHLPAEEIASKHLADTGVLGGIISGAIAAYMFNRFYRIKLPEYLGFFAGKRFVPIISGLAAIFTGVVLSFIWPPIGSAIQTFSQWAAYQNPVVAFGIYGFIERCLVPFGLHHIWNVPFQMQIGEYTNAAGQVFHGDIPRYMAGDPTAGKLSGGFLFKMYGLPAAAIAIWHSAKPENRAKVGGIMISAALTSFLTGITEPIEFSFMFVAPILYIIHAILAGLAFPICILLGMRDGTSFSHGLIDFIVLSGNSSKLWLFPIVGIGYAIVYYTIFRVLIKALDLKTPGREDATEDAKATGTSEMAPALVAAFGGKENITNLDACITRLRVSVADVSKVDQAGLKKLGAAGVVVAGSGVQAIFGTKSDNLKTEMDEYIRNH
For the molecule B2, the binding result in assay [2], in assay [3], in assay [4], in assay [5] and in assay [6] was “no binding” in each case.

For the origin of these results see publication PMC3174158.
